PubChem BioAssay AID1053209 – Peter MacCallum Cancer Centre – 2014

Assay: 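Knock-downs that sensitise mouse osteosarcoma cells to doxorubicin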 (follow-up of hits)
Cells: mouse primary osteosarcoma cells
Reagents: single siRNA against mouse genes, 25 nM (text also states 40 nM)
Duration: about 120 h (48 h before drug, then 72 h with drug)
Treatment: doxorubicin 100 nM (about IC30-40), added 48 h after transfection, for 72 h
Measured: 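Viability measured by ATP luminescence with and without doxorubicin, each replicate scaled to non-targeting siRNA NT1, averaged over two replicates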
Scale: viability with doxorubicin, vs NT1: higher = more viable cells under doxorubicin; viability without drug, vs NT1: higher = more viable cells without drug
Call rule: 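Counted as active (class LC dox) if viability falls to 0.7 of NT1 or below under doxorubicin but stays within 0.7 to 1.1 without drug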
Here is an unselected part of about 1,580 deposited reagents. In the full data, 207 (13%) were called active. 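Rows are single siRNAs; four siRNAs per gene were tested, a gene counting as confirmed only when at least two agree.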 A number with no mark means an inactive call. Reagents against one gene are numbered here. Further read-outs or replicates are left out here. No sequences are given here.

Ndufa5 (NADH:ubiquinone oxidoreductase subunit A5) #1 — combined effect class = normal viability with and without drug; viability with doxorubicin, vs NT1 = 1.04; viability without drug, vs NT1 = 0.98
Ndufa5 (NADH:ubiquinone oxidoreductase subunit A5) #2 — combined effect class = normal viability with and without drug; viability with doxorubicin, vs NT1 = 0.9; viability without drug, vs NT1 = 0.99
Ndufa5 (NADH:ubiquinone oxidoreductase subunit A5) #3 — combined effect class = normal viability with and without drug; viability with doxorubicin, vs NT1 = 0.78; viability without drug, vs NT1 = 0.91
Ndufa5 (NADH:ubiquinone oxidoreductase subunit A5) #4 — combined effect class = normal viability with and without drug; viability with doxorubicin, vs NT1 = 0.92; viability without drug, vs NT1 = 0.94
Mal #1 — combined effect class = normal viability with and without drug; viability with doxorubicin, vs NT1 = 1.03; viability without drug, vs NT1 = 1.06
Mal #2 — combined effect class = normal viability with and without drug; viability with doxorubicin, vs NT1 = 0.9; viability without drug, vs NT1 = 1.04
Mal #3 — combined effect class = normal viability with and without drug; viability with doxorubicin, vs NT1 = 0.98; viability without drug, vs NT1 = 1.02
Mal #4 — combined effect class = normal viability with and without drug; viability with doxorubicin, vs NT1 = 0.9; viability without drug, vs NT1 = 0.96
Eif3e (eukaryotic translation initiation factor 3, subunit E) #1 — combined effect class = low viability with and without drug; viability with doxorubicin, vs NT1 = 0.52; viability without drug, vs NT1 = 0.49
Eif3e (eukaryotic translation initiation factor 3, subunit E) #2 — combined effect class = low viability with and without drug; viability with doxorubicin, vs NT1 = 0.54; viability without drug, vs NT1 = 0.55
Eif3e (eukaryotic translation initiation factor 3, subunit E) #3 — combined effect class = low viability with and without drug; viability with doxorubicin, vs NT1 = 0.54; viability without drug, vs NT1 = 0.68
Eif3e (eukaryotic translation initiation factor 3, subunit E) #4 — combined effect class = normal viability with and without drug; viability with doxorubicin, vs NT1 = 0.91; viability without drug, vs NT1 = 0.94
Eif3g (eukaryotic translation initiation factor 3, subunit G) #1 — combined effect class = low viability only with doxorubicin; normal without drug (active); viability with doxorubicin, vs NT1 = 0.56; viability without drug, vs NT1 = 0.72
Eif3g (eukaryotic translation initiation factor 3, subunit G) #2 — combined effect class = low viability with and without drug; viability with doxorubicin, vs NT1 = 0.3; viability without drug, vs NT1 = 0.35
Eif3g (eukaryotic translation initiation factor 3, subunit G) #3 — combined effect class = low viability with and without drug; viability with doxorubicin, vs NT1 = 0.6; viability without drug, vs NT1 = 0.65
Eif3g (eukaryotic translation initiation factor 3, subunit G) #4 — combined effect class = low viability with and without drug; viability with doxorubicin, vs NT1 = 0.42; viability without drug, vs NT1 = 0.66
Lrrc8a (leucine rich repeat containing 8A VRAC subunit A) #1 — combined effect class = low viability only with doxorubicin; normal without drug (active); viability with doxorubicin, vs NT1 = 0.64; viability without drug, vs NT1 = 0.73
Lrrc8a (leucine rich repeat containing 8A VRAC subunit A) #2 — combined effect class = normal viability with and without drug; viability with doxorubicin, vs NT1 = 1.02; viability without drug, vs NT1 = 0.98
Lrrc8a (leucine rich repeat containing 8A VRAC subunit A) #3 — combined effect class = normal viability with and without drug; viability with doxorubicin, vs NT1 = 0.84; viability without drug, vs NT1 = 0.85
Lrrc8a (leucine rich repeat containing 8A VRAC subunit A) #4 — combined effect class = normal viability with and without drug; viability with doxorubicin, vs NT1 = 1.09; viability without drug, vs NT1 = 1.08
Rph3al (rabphilin 3A-like (without C2 domains)) #1 — combined effect class = low viability only with doxorubicin; normal without drug (active); viability with doxorubicin, vs NT1 = 0.7; viability without drug, vs NT1 = 0.96
Rph3al (rabphilin 3A-like (without C2 domains)) #2 — combined effect class = normal viability with and without drug; viability with doxorubicin, vs NT1 = 0.96; viability without drug, vs NT1 = 1.03
Rph3al (rabphilin 3A-like (without C2 domains)) #3 — combined effect class = normal viability with and without drug; viability with doxorubicin, vs NT1 = 1; viability without drug, vs NT1 = 1.04
Rph3al (rabphilin 3A-like (without C2 domains)) #4 — combined effect class = normal viability with and without drug; viability with doxorubicin, vs NT1 = 0.78; viability without drug, vs NT1 = 1.03

Part of the list above, reformatted.
| gene symbol | reagent | combined effect class | viability with doxorubicin, vs NT1 | viability without drug, vs NT1 |
| --- | --- | --- | --- | --- |
| Mal | 3 | normal viability with and without drug | 0.98 | 1.02 |
| Mal | 4 | normal viability with and without drug | 0.9 | 0.96 |
